Only a part is listed here, and it is no random draw. At the low end of the ranking the order means little.

This test concerns the target SPI1 (UniProt P17947). Briefly: DAPPL (digital affinity profiling via proximity ligation, sequencing). Particulars: 10 mM Tris-HCl pH 7.5, 50 mM NaCl, 1 mM DTT, 4% glycerol, room temperature, 30 min; GST-TFs on glutathione beads, 16-mer random dsDNA library, 0.1% …; high values mean tight binding; double strand, one strand shown; scale: fold enrichment (6-mer frequency, TF over GST control).
As for AAAGGC, the binding signal amounted to 0.891.

Consider GTATCG, for which the binding signal was determined as 0.786.

GAACTA displayed a binding signal of 1.41.

Regarding ATAGTG, the binding signal is 0.862.

For the sequence AGGCTA, the binding signal turned out to be 0.892.

GTGTTG displayed a binding signal of 0.842.

In turn, ACTCAG registered a binding signal of 0.978.

Sequence TTACTA showed a binding signal of 1.27.

As for TCATGA, the binding signal is 0.973.

The sequence CTCGGT registered a binding signal of 1.1.

On to GGTCCA, for which the binding signal came out at 0.824.

In turn, GAATCA yielded a binding signal of 0.863.

Sequence ACTAGA had a binding signal of 0.93.

Turning to GACCAA, the binding signal worked out at 0.887.

AGAAGA returned a binding signal of 0.894.

On to ATTGTG, for which the binding signal was 0.945.

In the case of CCCATA, the binding signal was determined as 1.18.

The sequence CCCGGT gave a binding signal of 0.911.

The sequence CATAGC displayed a binding signal of 0.986.

Regarding AAGTGC, the binding signal was 1.67.

With TCGTCG, the binding signal was found to be 0.878.

For the sequence ATATAG, the binding signal amounted to 1.2.

Turning to ACTCGG, the binding signal stood at 0.972.

The sequence GCCTAG gave a binding signal of 0.846.

For the sequence CCCATC, the binding signal came out at 1.11.

The sequence CGTTTG registered a binding signal of 0.98.

Regarding TTCTAG, the binding signal worked out at 1.2.

GCGCGT came in with a binding signal of 0.847.

Sequence ATCTCA showed a binding signal of 1.12.

For the sequence CGATGG, the binding signal turned out to be 1.41.

Take GTAGAA: the binding signal amounted to 1.01.

The sequence CGCACC had a binding signal of 0.877.

As to CTGGGG, the binding signal worked out at 0.765.

The sequence TGAAGC registered a binding signal of 0.92.

ACGCTC: the binding signal came to 0.984.

The sequence AGCTAT registered a binding signal of 1.15.

For CATGGT, the binding signal worked out at 1.27.

Regarding CTAGAT, the binding signal was determined as 1.2.

With TCCAAG, the binding signal turned out to be 1.03.

Values taken from PMC7862700.
